From paper PMC11747586 (Chemical Biology & Drug Design, 2025)

Assay: peptide synthesis
Conditions: conjugation step; for final HPLC purity: 210 nm

Substance | final HPLC purity (TFA salt) | conjugation yield (on cPDIP 2, mass of TFA salt) [%] | conjugation yield (TFA salt) [%]
cyclo(APLYKKIIKKLLESGGC(S(CH2)2OCO2(CPT-20-yl))GGAPLYKKIIKKLLESGGSGG) | 96% | 38 | –
PEPTIDE1{G.C.G.G.P.L.Y.K.K.I.I.K.K.L.L.E.S.G.G.[Ala(Tz-alk-CPT)].G.G.A.P.L.Y.K.K.I.I.K.K.L.C.E.S.[am]}$PEPTIDE1,PEPTIDE1,2:R3-34:R3$$$V2.0 | Purity = 92% | – | 26
PEPTIDE1{G.C.G.G.P.L.Y.K.K.I.I.K.K.L.L.E.S.G.G.[Ala(Tz-PEG1-VC-PAB-CPT)].G.G.A.P.L.Y.K.K.I.I.K.K.L.C.E.S.[am]}$PEPTIDE1,PEPTIDE1,2:R3-34:R3$$$V2.0 | – | – | 40

HELM strings list residues between dots; [ac] is acetyl, [am] amide, other brackets name non-standard units. *: point of attachment. S(CH2)2OCO2(CPT-20-yl) = CC[C@@]1(OC(=O)OCCS*)C(=O)OCc2c1cc1n(c2=O)Cc2cc3ccccc3nc2-1
